According to PMC8769375:
No constants are given. Whether binding was seen depends on the method and setting. Sequences can lack the tags named with a protein.

Experiments:
[1] = molecular target: Myc-tagged human preproinsulin R46X (early termination at the 46th residue of PPI) (human) (UniProt F8WCM5); assay: non-reducing SDS-PAGE and Western blot of disulfide-linked complexes; 293T cells transfected with one Myc-tagged PPI construct; lysates blotted with anti-Myc under non-reducing conditions
[2] = molecular target: Myc-tagged human preproinsulin R46X (early termination at the 46th residue of PPI) (human) (UniProt F8WCM5); assay: non-reducing SDS-PAGE and Western blot of disulfide-linked complexes; 293T cells co-transfected with untagged PPI-WT and Myc-tagged PPI-WT or mutants; homodimers (D, D') and heterodimers (H) told apart by size under non-reducing conditions
[3] = molecular target: Myc-tagged human preproinsulin R46X (early termination at the 46th residue of PPI) (human) (UniProt F8WCM5); assay: non-reducing SDS-PAGE and Western blot of disulfide-linked complexes; INS1 cells transfected with one Myc-tagged PPI construct; lysates blotted under non-reducing conditions

Measured: binding

B1: Myc-tagged human preproinsulin R46X (early termination at the 46th residue of PPI) (domain or fragment, UniProt F8WCM5 1-45)
chain: MALWMRLLPLLALLALWGPDPAAAFVNQHLCGSHLVEALYLVCGE
no binding: all assays above
